From PubChem BioAssay (NCATS)
Inconclusive means that the source gave no clear call. Such entries were picked first, then a sample of the others. For some assays here: Potencies beside an inconclusive call are fits to weak or partial responses and may not hold up. Active and inactive are the calls of the source. Calls come from the whole dose curve; as a rule, active = well fitted cell-killing curve with a large enough effect; inconclusive = small, poorly fitted or top-dose-only effect, or effect the other way; inactive = no such curve, though single readings can be large or run the other way.

Experiments:
[1] = Quantitative High-Throughput drug screen in 47 multiple myeloma cell lines against the NCATS MIPE library collection: KMS28PE_JCRB cell viability assay (AID 1918983); details: KMS28PE multiple myeloma viability, CellTiter-Glo ATP, 48 h; series mostly up to 45.8 µM; note: nearly all actives have a fitted effect of over 35% in size; note: potency is the fitted concentration of half-maximal effect
In short: (§1)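 Myeloma cells (500/well) treated with MIPE 4.0 compounds for 48 h at 37 °C, 5% CO2. Viability read as ATP via CellTiter-Glo luminescence after 5 min at RT; DMSO-only wells = 100%, media-only = 0% viability.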

[2] = Quantitative High-Throughput drug screen in 47 multiple myeloma cell lines against the NCATS MIPE library collection: L363_DSMZ cell viability assay (AID 1918984); details: L363 myeloma viability, CellTiter-Glo ATP luminescence, 48 h; viability (% of control): at 45.8 µM (top of the series); note: nearly all actives have a fitted effect of over 40% in size; note: potency is the fitted concentration of half-maximal effect
In short: as §1

[3] = Quantitative High-Throughput drug screen in 47 multiple myeloma cell lines against the NCATS MIPE library collection: KMS34_JCRB cell viability assay (AID 1918985); details: KMS34 myeloma viability, CellTiter-Glo ATP luminescence, 48 h; series mostly up to 45.8 µM; note: nearly all actives have a fitted effect of over 40% in size; note: potency is the fitted concentration of half-maximal effect
In short: as §1

[4] = Quantitative High-Throughput drug screen in 47 multiple myeloma cell lines against the NCATS MIPE library collection: OCIMY7_PLB cell viability assay (AID 1918987); details: OCI-MY7 myeloma viability, CellTiter-Glo ATP, 48 h; viability (% of DMSO): at 45.8 µM (top of the series); note: nearly all actives have a fitted effect of over 65% in size; note: potency is the fitted concentration of half-maximal effect
In short: as §1

[5] = Quantitative High-Throughput drug screen in 47 multiple myeloma cell lines against the NCATS MIPE library collection: OCIMY5_PLB cell viability assay (AID 1918988); details: OCI-MY5 myeloma viability, ATP luminescence, 48 h; series mostly up to 45.8 µM; note: potency is the fitted concentration of half-maximal effect; nearly all actives have a fitted effect of over 65% in size
In short: as §1

[6] = Quantitative High-Throughput drug screen in 47 multiple myeloma cell lines against the NCATS MIPE library collection: OPM1_PLB cell viability assay (AID 1918989); details: CellTiter-Glo, 48 h; series mostly up to 45.8 µM; note: nearly all actives have a fitted effect of over 40% in size; note: potency is the fitted concentration of half-maximal effect
In short: as §1

[7] = Quantitative High-Throughput drug screen in 47 multiple myeloma cell lines against the NCATS MIPE library collection: SKMM1_PLB cell viability assay (AID 1919863); details: SKMM1 myeloma viability, CellTiter-Glo ATP, 48 h; viability: stronger effect = lower value; note: nearly all actives have a fitted effect of over 35% in size; note: potency is the fitted concentration of half-maximal effect
In short: as §1

[8] = Quantitative High-Throughput drug screen in 47 multiple myeloma cell lines against the NCATS MIPE library collection: U266_ATCC cell viability assay (AID 1919864); details: U266 myeloma viability, CellTiter-Glo ATP luminescence, 48 h; viability (% of DMSO control): at 45.8 µM (top of the series); note: nearly all actives have a fitted effect of over 35% in size; note: potency is the fitted concentration of half-maximal effect
In short: as §1

[9] = Quantitative High-Throughput drug screen in 47 multiple myeloma cell lines against the NCATS MIPE library collection: XG6_PLB cell viability assay (AID 1919865); details: XG6 myeloma viability, CellTiter-Glo ATP luminescence, 48 h; viability (% of control): at 45.8 µM (top of the series); note: nearly all actives have a fitted effect of over 40% in size; note: potency is the fitted concentration of half-maximal effect
In short: as §1

[10] = Quantitative High-Throughput drug screen in 47 multiple myeloma cell lines against the NCATS MIPE library collection: UTMC2_PLB cell viability assay (AID 1919868); details: CellTiter-Glo ATP luminescence, 48 h; viability (% of DMSO control): at 45.8 µM (top of the series); note: nearly all actives have a fitted effect of over 55% in size; note: potency is the fitted concentration of half-maximal effect
In short: as §1

[11] = Quantitative High-Throughput drug screen in 47 multiple myeloma cell lines against the NCATS MIPE library collection: RPMI8226_ATCC cell viability assay (AID 1919871); details: RPMI8226 myeloma viability, CellTiter-Glo ATP luminescence, 48 h; viability (% of control): at 45.8 µM (top of the series); note: nearly all actives have a fitted effect of over 30% in size; note: potency is the fitted concentration of half-maximal effect
In short: as §1

[12] = Quantitative High-Throughput drug screen in 47 multiple myeloma cell lines against the NCATS MIPE library collection: KMS28BM_JCRB cell viability assay (AID 1919874); details: CellTiter-Glo ATP, 48 h; series mostly up to 45.8 µM; note: nearly all actives have a fitted effect of over 35% in size; note: potency is the fitted concentration of half-maximal effect
In short: as §1

[13] = Quantitative High-Throughput drug screen in 47 multiple myeloma cell lines against the NCATS MIPE library collection: XG1_PLB cell viability assay (AID 1919866); details: CellTiter-Glo ATP, 48 h; viability: at 45.8 µM (top of the series); note: nearly all actives have a fitted effect of over 35% in size; note: potency is the fitted concentration of half-maximal effect
In short: as §1

[14] = Quantitative High-Throughput drug screen in 47 multiple myeloma cell lines against the NCATS MIPE library collection: PCM6_Riken cell viability assay (AID 1919870); details: CellTiter-Glo ATP, 48 h; series mostly up to 45.8 µM; note: nearly all actives have a fitted effect of over 30% in size; note: potency is the fitted concentration of half-maximal effect
In short: as §1

[15] = Quantitative High-Throughput drug screen in 47 multiple myeloma cell lines against the NCATS MIPE library collection: OPM2_DSMZ cell viability assay (AID 1919872); details: OPM2 myeloma viability, CellTiter-Glo ATP luminescence, 48 h; series mostly up to 45.8 µM; note: nearly all actives have a fitted effect of over 30% in size
In short: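 We plated 500 myeloma cells per well, pinned in MIPE 4.0 compounds, and incubated for 48 hours at 37C. ATP was then quantified with CellTiter-Glo, with DMSO and media-only wells defining 100% and 0%.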

[16] = Quantitative High-Throughput drug screen in 47 multiple myeloma cell lines against the NCATS MIPE library collection: VP6_DJ cell viability assay (AID 1919867); details: ATP luminescence, 48 h; viability (% of DMSO): at 45.8 µM (top of the series); note: nearly all actives have a fitted effect of over 40% in size; note: potency is the fitted concentration of half-maximal effect
In short: as §1

[17] = Quantitative High-Throughput drug screen in 47 multiple myeloma cell lines against the NCATS MIPE library collection: PE2_PLB cell viability assay (AID 1919869); details: PE2_PLB myeloma cells viability, ATP luminescence, 48 h; viability (% of control): at 45.8 µM (top of the series)
In short: as §1

[18] = Quantitative High-Throughput drug screen in 47 multiple myeloma cell lines against the NCATS MIPE library collection: KMS11_JCRBsus cell viability assay (AID 1919873); details: KMS11 myeloma viability, CellTiter-Glo ATP luminescence, 48 h; series mostly up to 45.8 µM; note: nearly all actives have a fitted effect of over 50% in size; note: potency is the fitted concentration of half-maximal effect
In short: as §1

Row | SMILES | Potency [1] | Potency [2] | Potency [3] | Potency [4] | Potency [5] | Potency [6] | viability [7] | Potency [8] | Potency [9] | Potency [10] | Potency [11] | Potency [12] | Potency [7] | Potency [13] | Potency [14] | Potency [15] | Potency [16] | Potency [17] | Potency [18]
1 | C[C@@H]1CC[C@H]2[C@@H](C)C(=O)O[C@@H]3O[C@@]4(C)CC[C@H]1[C@]32OO4 | inactive | inactive | active: 2.96 µM | active: 1.87 µM | inconclusive: 0.0469 µM [cytotoxic, full curve, poor fit] | inconclusive: 0.0053 µM [cytotoxic, full curve, poor fit] | inactive: 103% | inactive | inconclusive: 0.296 µM [cytotoxic, full curve, poor fit] | inconclusive: 0.0105 µM [cytotoxic, full curve, poor fit] | inconclusive: 1.87 µM [cytotoxic, partial curve, poor fit] | inconclusive: 0.935 µM [cytotoxic, full curve, poor fit] |  |  |  |  |  |  | 
2 | C[C@H]([C@H](O)CCC(C)(C)O)[C@H]1CC[C@@]2(O)C3=CC(=O)[C@@H]4C[C@@H](O)[C@@H](O)C[C@]4(C)[C@@H]3CC[C@]12C | inconclusive: 13.2 µM [cytotoxic, partial curve, poor fit] |  | inconclusive: 11.8 µM [cytotoxic, single point] | inactive | inconclusive: 7.43 µM [cytotoxic, single point] | inactive |  | inactive | inactive | inconclusive: 0.0166 µM [cytotoxic, full curve, poor fit] |  | inconclusive: 0.0047 µM [rising, full curve, poor fit] | inconclusive: 8.33 µM [cytotoxic, single point] | inconclusive: 0.0013 µM [rising, full curve, poor fit] | inconclusive: 0.0019 µM [rising, full curve, poor fit] | inactive |  |  | 
3 | N[C@@H](Cc1ccc(N(CCCl)CCCl)cc1)C(=O)O |  |  | active: 16.6 µM | active: 0.662 µM |  |  |  | active: 16.6 µM |  | active: 0.935 µM |  | active: 23.5 µM |  |  |  |  | active: 11.8 µM |  | 
4 | O=C(N[C@H]1CN2CCC1CC2)c1ccc(Cl)cc1 |  |  |  | inconclusive: 3.72 µM [cytotoxic, full curve, poor fit] | inconclusive: 0.0526 µM [rising, full curve, poor fit] | inactive |  |  |  | inconclusive: 3.72 µM [rising, partial curve, poor fit] | inactive |  | inconclusive: 0.0372 µM [rising, full curve, poor fit] | active: 6.62 µM |  | inactive |  | inconclusive: 0.0418 µM [rising, full curve, poor fit] | inconclusive: 0.0012 µM [rising, full curve, poor fit]
5 | C#CC1(O)CCC2C3CCC4=CC(=O)CCC4(C)C3CCC21C (centres undefined) |  | inconclusive: 0.332 µM [cytotoxic, full curve, poor fit] | inactive | inconclusive: 0.001 µM [cytotoxic] | inconclusive: 11.8 µM [cytotoxic, partial curve, poor fit] |  |  |  |  | inconclusive: 0.662 µM [cytotoxic, full curve, poor fit] |  | active: 18.7 µM | inconclusive: 14.8 µM [cytotoxic, partial curve, poor fit] | inactive | inconclusive: 9.35 µM [cytotoxic, single point] |  | inactive |  | inactive
6 | C[C@]12CC[C@H]3[C@@H](CC[C@@]45O[C@H]4C(O)=C(C#N)C[C@]35C)[C@H]1CC[C@H]2O |  | inactive | active: 16.6 µM |  | inconclusive: 23.5 µM [cytotoxic, single point] |  |  | inconclusive: 20.9 µM [cytotoxic, single point] |  | inactive |  | inactive | inconclusive: 0.0021 µM [rising, full curve, poor fit] |  | inactive |  | inconclusive: 14.8 µM [cytotoxic, partial curve, poor fit] |  | inactive
7 | O=C1C=CC[C@@H]2[C@H]3CCCN4CCC[C@@H](CN12)[C@@H]34 |  | inactive |  | inconclusive: 37.2 µM [cytotoxic, single point] |  | inconclusive: 18.7 µM [cytotoxic, single point] |  |  | inconclusive: 0.0033 µM [rising, full curve, poor fit] | inactive | inconclusive: 20.9 µM [cytotoxic, partial curve, poor fit] | inconclusive: 37.2 µM [cytotoxic, single point] |  | inactive | inconclusive: 0.0033 µM [rising, full curve, poor fit] | inactive |  | inconclusive: 0.0023 µM [cytotoxic, full curve, poor fit] | inactive
